Screening data, single-dose tests

Measurements from “University of Dundee, Small-Polar-MMV Screening Library” (2021), ChEMBL document CHEMBL3988442.

Values are the deposited “Percent Effect”, in %. The controls that fix the scale are not given in the record; negative values are as filed. The compounds are a random part of those screened.

T. brucei: 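Whole-parasite assay of Trypanosoma brucei over 72 hours; the read-out is not stated. Compounds at 30 µM. The record gives no direction; compounds that gave an IC50 in retests scored well above the rest, so higher reads as stronger inhibition. Values scatter widely below zero; nearly all retest evidence comes from the higher of the two concentrations used. About 64,000 compounds were tested under these conditions; 1.5% (about 940) showed 50% or more at least once.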
Toxoplasma: 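Assay of Toxoplasma gondii numbers, read through their beta-galactosidase reporter with a colour substrate. Compounds at 10 µM. The record gives no direction; the compounds picked for IC50 retests had high values, so higher reads as fewer parasites. About 67,000 compounds were tested under these conditions; 0.38% (about 260) showed 50% or more at least once.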

With COc1cccc(N2C(=O)CC3(CCNCC3)C2=O)c1.Cl the screen gave T. brucei: 5.232%; Toxoplasma: -6.176%.
With COc1cccc(CN(C)Cc2cc(C#N)ccc2F)c1OC the screen gave T. brucei: 3.105%; Toxoplasma: -5.6%.
With O=C(CCC(=O)N1CCNC(=O)C1c1cccc(F)c1)NC1CCCC1 (centres unmarked) the screen gave T. brucei: -39.87%; Toxoplasma: 4.574%.
With O=C(NCCSC1CCCC1)c1ccc(F)cc1F the screen gave T. brucei: -16.93%; Toxoplasma: 17.52%.
With CNC(=O)c1ccc(C2CN(C(=O)COC)CCO2)nc1 (centres unmarked) the screen gave T. brucei: -25.59%; Toxoplasma: -8.651%.
With Cc1cnn(CC2CCCN2C(=O)c2cccc(-n3ccc(C)n3)c2)c1 (centres unmarked) the screen gave T. brucei: -11.97%; Toxoplasma: -10.93%.
With O=C(O)C(F)(F)F.O=C(O)C(F)(F)F.[H][C@@]12OCCN(Cc3nccs3)[C@@]1([H])CC[C@H]2Oc1ncccc1F the screen gave T. brucei: 10.6%; Toxoplasma: 17.69%.
With O=C(NCCCN1CCOCC1)c1ccn(-c2ccc3ccccn23)n1.O=C(O)C(F)(F)F the screen gave T. brucei: -36.86%; Toxoplasma: -17.01%.
With Cc1csc(Nc2nccnc2C2CCCN2C(=O)C(C)C)n1 (centres unmarked) the screen gave T. brucei: -14.12%; Toxoplasma: 2.112%.
With COc1ccc(C)cc1C(=O)NC1(C#N)CCOCC1 the screen gave T. brucei: -19.57%; Toxoplasma: 5.603%.
With CC(NC(=O)N(C)Cc1ccncc1)c1nncn1C (centres unmarked) the screen gave T. brucei: 0.8803%; Toxoplasma: -8.549%.
With CC(C)c1nc2c(n1C)CCN(CCS(=O)(=O)c1ccccc1)C2 the screen gave T. brucei: -12.79%; Toxoplasma: 20.62%.
With OCCN(Cc1ccno1)Cc1cc(Br)ccc1F the screen gave Toxoplasma: -1.498%.
With O=C(c1ccc(CNC2CCSC2)cc1)N1CCCC1 (centres unmarked) the screen gave T. brucei: 13.71%; Toxoplasma: 10%.
With COCCN(C)CCN1CC2(CCN(C3CCOC3)CC2)OC1=O (centres unmarked) the screen gave T. brucei: -15.11%; Toxoplasma: -12.65%.
With Cc1ccc(N2CCCC(N3CCN(CC(F)F)CC3)C2=O)cc1 (centres unmarked) the screen gave T. brucei: 9.888%; Toxoplasma: 2.941%.
With Cc1ocnc1C(=O)N1CCC(c2nccn2Cc2ccncc2)CC1 the screen gave T. brucei: -22.63%; Toxoplasma: -7.137%.
With CS(=O)(=O)Cc1nc(CN2CC=C(c3ccccc3)CC2)cs1 the screen gave T. brucei: 15.67%; Toxoplasma: -1.175%.
With Cc1cccc(-c2ccc(C(=O)N3CCSCC3)c(=O)[nH]2)c1 the screen gave T. brucei: -7.63%; Toxoplasma: 20.01%.
With CC(Sc1nnc(C2CC2)n1CC(N)=O)c1ccc(Cl)cc1 (centres unmarked) the screen gave T. brucei: -7.088%; Toxoplasma: -3.442%.
With O=C(c1cccnc1Oc1ccc(Cl)cc1)N1CC[C@@H](O)C1 the screen gave T. brucei: -12.19%; Toxoplasma: 2.608%.
With COc1cc(C)c(CN2CCC3(CC2)C(C(=O)O)CC(=O)N3C)cc1C (centres unmarked) the screen gave T. brucei: -1.13%; Toxoplasma: -3.524%.
With CC(C)(C)C(=O)CN1CCc2ccccc2NCCC1=O the screen gave T. brucei: -4.506%; Toxoplasma: -0.6104%.
With CC(C)c1ncc(CN2C[C@@H](CN3CCCC3)[C@@H](CO)C2)cn1 the screen gave T. brucei: -20.78%; Toxoplasma: -8.487%.
With CC(C)n1cnnc1CN(C)C(=O)Cn1ccc2ccccc2c1=O the screen gave T. brucei: -22.81%; Toxoplasma: 31.03%.
With COCCNC(=O)Nc1ccc(-n2cncn2)c(C(F)(F)F)c1 the screen gave Toxoplasma: -7.445%.
With CCc1nnsc1C(=O)NCCC1CCCN(C(C)C)C1 (centres unmarked) the screen gave T. brucei: -52.8%; Toxoplasma: -24.38%.
With CC(Cn1cccn1)NCc1nc(-c2cccnc2)no1 (centres unmarked) the screen gave T. brucei: 5.913%; Toxoplasma: -6.133%.
With Cc1cc2ncc(C(C)NCc3cccnc3)c(C)n2n1 (centres unmarked) the screen gave T. brucei: -38.96%; Toxoplasma: -8.974%.
With CC(=O)Nc1ccc(OCc2noc(C(=O)N3CCCC3)n2)cc1 the screen gave T. brucei: -29.97%; Toxoplasma: -0.7209%.
With CN(Cc1cc(-c2ccccc2)no1)CC1CCCN1c1cccnn1 (centres unmarked) the screen gave T. brucei: 11.88%; Toxoplasma: 3.816%.
With [H][C@@]12CN(Cc3cccnc3)CCO[C@]1([H])CN(C(=O)c1c(C)noc1C)C2 the screen gave T. brucei: 43.52%; Toxoplasma: -2.319%.
With Cc1cc(C)c(CNC(=O)N2CCN(c3nccs3)CC2)c(=O)[nH]1 the screen gave Toxoplasma: -7.526%.
With COC(=O)c1cnc(/C=C/c2ccc(C(=O)O)cc2)s1 the screen gave T. brucei: -46.98%; Toxoplasma: 3.559%.
With Cc1ccc2c(c1)CN(C(=O)c1cccs1)C(CN(C)C)CO2 (centres unmarked) the screen gave T. brucei: 3.249%; Toxoplasma: -6.713%.
With [H][C@@]12CCN(Cc3cnn(C)c3)C[C@@]1([H])[C@H](C(=O)NCc1ccco1)CCO2 the screen gave T. brucei: -0.5703%; Toxoplasma: -3.835%.
With Cc1cnn(C2CCCN(C(=O)CCCNc3ncccn3)C2)c1 (centres unmarked) the screen gave T. brucei: -14.93%; Toxoplasma: 3.963%.
With Cc1ccc(NS(=O)(=O)c2cnn(-c3ccccc3)c2)c(C(=O)O)c1 the screen gave T. brucei: -11.4%; Toxoplasma: -0.4449%.
With COc1ccc(-c2cnc3n2CCNC32CCN(S(C)(=O)=O)CC2)cc1 the screen gave T. brucei: -59.53%; Toxoplasma: -1.133%.
With Cc1cc(C)c2cc(C(=O)N3CCNC(=O)C3)[nH]c2c1 the screen gave T. brucei: -57.5%; Toxoplasma: 20.62%.
With NC(=O)CC1CCN(CC(O)c2ccc(Br)cc2)CC1 (centres unmarked) the screen gave T. brucei: -11.35%; Toxoplasma: -1.022%.
With CC(C)c1ncc2c(n1)CN(CC(=O)Nc1ccc(Cl)cn1)CC2 the screen gave T. brucei: 1.958%; Toxoplasma: -0.5392%.
With CCC(C)NC(=O)Nc1cccc(OCC#N)c1 (centres unmarked) the screen gave T. brucei: -25.01%; Toxoplasma: 8.491%.
With N#Cc1cccc(CN2CC3(CCCCN3c3cccnc3)CC2=O)c1.O=C(O)C(F)(F)F (centres unmarked) the screen gave T. brucei: -9.517%; Toxoplasma: 8.315%.
With O=C(c1ccc[nH]1)N1CCN(Cc2ccncc2)c2ncccc2C1 the screen gave T. brucei: -10.79%; Toxoplasma: 5.698%.
With CCc1noc(CNCCn2cc(C)cn2)n1 the screen gave T. brucei: -10.46%; Toxoplasma: 10.18%.
With CCCSc1nc(N)c(NC(=O)c2ccc(OC)c(OC)c2)c(=O)[nH]1 the screen gave T. brucei: -28.49%; Toxoplasma: -3.861%.